Article PMC4601081, “A Single α Helix Drives Extensive Remodeling of the Proteasome Lid and Completion of Regulatory Particle Assembly” (Cell, 2015)
These are yes or no findings as the source states them, for the method shown. Some entries that bind do so weakly or less than the wild type. For some assays here: Sequences can lack the tags named with a protein.

Tests used:
[1] = molecular target: the other LP2 subunits (Rpn3, Rpn5, Rpn7, Rpn8, Rpn9, Rpn11, Sem1), recombinant (S. cerevisiae) (UniProt P40016); test: co-purification after coexpression; Rpn6 variants coexpressed with the other LP2 subunits in E. coli; affinity purification and gel filtration, SDS-PAGE
[2] = molecular target: T1, Rpn8, subunit of LP2 and lid purified from yeast (S. cerevisiae), Q08723; test: cross-linking; QCLMS of lid purified from yeast as a whole complex: BS3-d0 / BS3-d4 at 1:200 protein to cross-linker, Buffer HA, 30°C 1 h; monomeric cross-linked complex cut from SDS-PAGE, trypsin, LC-MS/MS; both purified; settings: remark: other sources report otherwise
T1 chain: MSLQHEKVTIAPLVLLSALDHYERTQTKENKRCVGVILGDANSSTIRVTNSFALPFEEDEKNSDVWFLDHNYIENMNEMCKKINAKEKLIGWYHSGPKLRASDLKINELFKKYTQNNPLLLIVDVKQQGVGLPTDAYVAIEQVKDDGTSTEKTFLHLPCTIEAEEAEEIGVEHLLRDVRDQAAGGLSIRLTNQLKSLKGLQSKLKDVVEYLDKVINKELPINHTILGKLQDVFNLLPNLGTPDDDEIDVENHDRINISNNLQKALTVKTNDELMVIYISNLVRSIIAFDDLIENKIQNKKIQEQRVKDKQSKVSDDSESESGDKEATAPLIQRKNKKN

[3] = molecular target: T1, Rpn8, subunit of LP2 and lid purified …; test: cross-linking; QCLMS of LP2 purified from yeast as a whole complex: BS3-d0 / BS3-d4 at 1:200 protein to cross-linker, Buffer HA, 30°C 1 h; monomeric cross-linked complex cut from SDS-PAGE, trypsin, LC-MS/MS; both purified; settings: remark: other sources report otherwise
[4] = molecular target: T2, Rpn11, subunit of LP2 and lid purified from yeast (S. cerevisiae), P43588; test: negative-stain EM; single-particle 3D reconstruction of LP2 purified from yeast at 16 Å; ~50 nM complex in Buffer A, 2% uranyl acetate; both purified; settings: remark: other sources report otherwise
T2 chain: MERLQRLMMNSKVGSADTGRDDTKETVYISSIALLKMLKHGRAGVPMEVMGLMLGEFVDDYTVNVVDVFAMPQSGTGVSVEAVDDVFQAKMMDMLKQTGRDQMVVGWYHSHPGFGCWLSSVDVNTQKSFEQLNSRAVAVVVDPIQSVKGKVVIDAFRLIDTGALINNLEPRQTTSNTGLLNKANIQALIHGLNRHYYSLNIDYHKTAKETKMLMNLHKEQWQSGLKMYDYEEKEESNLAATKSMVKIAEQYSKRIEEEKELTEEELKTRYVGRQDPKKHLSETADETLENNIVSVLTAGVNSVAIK

[5] = molecular target: T3, Rpn7, subunit of LP2 and lid purified from yeast (S. cerevisiae), Q06103; test: as above; settings: remark: other sources report otherwise
T3 chain: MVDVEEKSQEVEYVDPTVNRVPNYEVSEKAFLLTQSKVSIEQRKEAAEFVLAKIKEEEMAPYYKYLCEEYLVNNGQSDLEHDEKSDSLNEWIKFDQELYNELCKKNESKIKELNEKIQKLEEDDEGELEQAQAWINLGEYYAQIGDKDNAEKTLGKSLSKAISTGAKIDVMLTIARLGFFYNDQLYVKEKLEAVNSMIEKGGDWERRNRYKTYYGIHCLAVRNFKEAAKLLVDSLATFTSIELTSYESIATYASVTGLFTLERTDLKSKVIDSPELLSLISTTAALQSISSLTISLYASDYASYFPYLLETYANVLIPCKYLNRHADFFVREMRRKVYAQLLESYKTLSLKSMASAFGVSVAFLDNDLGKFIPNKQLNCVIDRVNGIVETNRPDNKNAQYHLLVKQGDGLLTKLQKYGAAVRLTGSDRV

[6] = molecular target: T2, Rpn11, subunit of LP2 and lid purified …; test: cross-linking; QCLMS of LP2 purified from yeast as a whole complex: BS3-d0 / BS3-d4 at 1:200 protein to cross-linker, Buffer HA, 30°C 1 h; monomeric cross-linked complex cut from SDS-PAGE, trypsin, LC-MS/MS; both purified; settings: remark: other sources report otherwise
[7] = molecular target: T4, Rpn9, subunit of LP2 and lid purified from yeast (S. cerevisiae), Q04062; test: cross-linking; QCLMS of lid purified from yeast as a whole complex: BS3-d0 / BS3-d4 at 1:200 protein to cross-linker, Buffer HA, 30°C 1 h; monomeric cross-linked complex cut from SDS-PAGE, trypsin, LC-MS/MS; both purified; settings: remark: other sources report otherwise
T4 chain: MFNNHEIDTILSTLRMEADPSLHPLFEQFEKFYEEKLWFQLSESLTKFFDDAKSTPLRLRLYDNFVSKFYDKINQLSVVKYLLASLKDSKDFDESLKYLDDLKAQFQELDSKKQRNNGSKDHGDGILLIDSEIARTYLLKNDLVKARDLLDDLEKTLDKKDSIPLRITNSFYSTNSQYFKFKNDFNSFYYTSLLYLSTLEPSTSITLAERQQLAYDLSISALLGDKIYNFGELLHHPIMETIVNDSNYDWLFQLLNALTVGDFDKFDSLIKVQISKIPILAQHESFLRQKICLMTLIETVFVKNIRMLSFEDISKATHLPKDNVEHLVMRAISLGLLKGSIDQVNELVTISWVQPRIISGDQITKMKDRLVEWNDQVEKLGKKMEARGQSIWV

[8] = molecular target: T5, Sem1, subunit of LP2 and lid purified from yeast (S. cerevisiae), O94742; test: as above; settings: remark: other sources report otherwise
T5 chain: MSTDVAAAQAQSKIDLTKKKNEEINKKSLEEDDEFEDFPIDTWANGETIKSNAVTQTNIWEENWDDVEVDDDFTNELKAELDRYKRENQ

[9] = molecular target: T6, Rpn3, subunit of LP2 and lid purified from yeast (S. cerevisiae), P40016; test: as above; settings: remark: other sources report otherwise
T6 chain: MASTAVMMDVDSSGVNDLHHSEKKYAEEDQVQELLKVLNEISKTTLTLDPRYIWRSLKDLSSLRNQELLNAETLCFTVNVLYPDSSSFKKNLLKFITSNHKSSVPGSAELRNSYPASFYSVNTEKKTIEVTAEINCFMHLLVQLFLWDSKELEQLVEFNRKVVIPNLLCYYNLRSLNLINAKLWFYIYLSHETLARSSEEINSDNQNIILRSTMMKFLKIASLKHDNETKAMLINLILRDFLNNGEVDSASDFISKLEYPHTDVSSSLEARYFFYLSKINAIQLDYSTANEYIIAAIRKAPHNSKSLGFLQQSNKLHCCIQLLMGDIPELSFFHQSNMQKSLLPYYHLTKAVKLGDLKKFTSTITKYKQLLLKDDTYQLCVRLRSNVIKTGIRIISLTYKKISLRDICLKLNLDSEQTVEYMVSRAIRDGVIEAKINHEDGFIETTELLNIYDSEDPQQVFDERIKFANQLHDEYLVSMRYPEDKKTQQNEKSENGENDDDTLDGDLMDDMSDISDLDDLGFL

B1: GFP-Rpn6 fusion (protein, UniProt Q12377 1-434)
chain: MSLPGSKLEEARRLVNEKQYNEAEQVYLSLLDKDSSQSSAAAGASVDDKRRNEQETSILELGQLYVTMGAKDKLREFIPHSTEYMMQFAKSKTVKVLKTLIEKFEQVPDSLDDQIFVCEKSIEFAKREKRVFLKHSLSIKLATLHYQKKQYKDSLALINDLLREFKKLDDKPSLVDVHLLESKVYHKLRNLAKSKASLTAARTAANSIYCPTQTVAELDLMSGILHCEDKDYKTAFSYFFESFESYHNLTTHNSYEKACQVLKYMLLSKIMLNLIDDVKNILNAKYTKETYQSRGIDAMKAVAEAYNNRSLLDFNTALKQYEKELMGDELTRSHFNALYDTLLESNLCKIIEPFECVEISHISKIIGLDTQQVEGKLSQMILDKIFYGVLDQGNGWLYVYETPNQDATYDSALELVGQLNKVVDQLFEKASVLY
For B1, the binding [1] was “binds”.

B2: Δ172-rpn6, N-terminally truncated Rpn6 (domain or fragment, UniProt Q12377 173-434)
chain: SLVDVHLLESKVYHKLRNLAKSKASLTAARTAANSIYCPTQTVAELDLMSGILHCEDKDYKTAFSYFFESFESYHNLTTHNSYEKACQVLKYMLLSKIMLNLIDDVKNILNAKYTKETYQSRGIDAMKAVAEAYNNRSLLDFNTALKQYEKELMGDELTRSHFNALYDTLLESNLCKIIEPFECVEISHISKIIGLDTQQVEGKLSQMILDKIFYGVLDQGNGWLYVYETPNQDATYDSALELVGQLNKVVDQLFEKASVLY
With B2 the binding [1] was “binds”.

B3: Δ211-rpn6, N-terminally truncated Rpn6 (domain or fragment, UniProt Q12377 212-434)
chain: TQTVAELDLMSGILHCEDKDYKTAFSYFFESFESYHNLTTHNSYEKACQVLKYMLLSKIMLNLIDDVKNILNAKYTKETYQSRGIDAMKAVAEAYNNRSLLDFNTALKQYEKELMGDELTRSHFNALYDTLLESNLCKIIEPFECVEISHISKIIGLDTQQVEGKLSQMILDKIFYGVLDQGNGWLYVYETPNQDATYDSALELVGQLNKVVDQLFEKASVLY
For B3, the binding [1] was “binds”.

B4: Rpn7, subunit of LP2 and lid purified from yeast (natural protein, S. cerevisiae, UniProt Q06103 1-429, looked up)
chain: T3 chain
notes: Rpn7, S. cerevisiae proteasome lid subunit; source: purified from S. cerevisiae as part of LP2 or lid
B4 was tested, and the binding [2] was “binds” and the binding [3] was “binds”.

B5: Rpn6, subunit of LP2 and lid purified from yeast, Q12377 1-434 (protein)
chain: B1 chain
With B5 the binding [4] was “binds”, the binding [5] was “binds” and the binding [6] was “binds”.

B6: Rpn11, subunit of LP2 and lid purified from yeast (natural protein, S. cerevisiae, UniProt P43588 1-306, looked up)
chain: T2 chain
notes: Rpn11, S. cerevisiae proteasome lid subunit; source: purified from S. cerevisiae as part of LP2 or lid
For B6, the binding [7] was “binds” and the binding [8] was “binds”.

B7: Rpn8, subunit of LP2 and lid purified from yeast (natural protein, S. cerevisiae, UniProt Q08723 1-338, looked up)
chain: T1 chain
notes: Rpn8, S. cerevisiae proteasome lid subunit; source: purified from S. cerevisiae as part of LP2 or lid
B7 was tested, and the binding [9] was “binds”.
